For one molecule, binding results are on record in PMC11165526.

Chains of the proteins cited; added tags and fusions are not shown.
UniProt O95619: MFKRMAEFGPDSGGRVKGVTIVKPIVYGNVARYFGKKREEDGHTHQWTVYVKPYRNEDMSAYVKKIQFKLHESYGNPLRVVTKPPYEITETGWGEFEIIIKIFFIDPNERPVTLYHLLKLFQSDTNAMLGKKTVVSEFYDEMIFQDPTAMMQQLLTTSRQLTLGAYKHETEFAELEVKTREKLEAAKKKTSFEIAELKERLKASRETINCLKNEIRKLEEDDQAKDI

These are yes or no findings as the source states them, for the method shown. In cells and extracts the contact can be indirect. Here binding means that the protein was enriched with, or labelled near, the bait; the list need not be complete.

The experiment has as its target YEATS4-V5-TurboID (human) (UniProt O95619). The experiment is described as follows: proximity labelling; cells expressing YEATS4-V5-TurboID, 50 µM biotin for 30 min; lysis in RIPA-SDS buffer; streptavidin beads; mass spectrometry.

B1: KANSL1, endogenous (protein, UniProt Q7Z3B3 1-1105)
chain: MAAMAPALTDAAAEAHHIRFKLAPPSSTLSPGSAENNGNANILIAANGTKRKAIAAEDPSLDFRNNPTKEDLGKLQPLVASYLCSDVTSVPSKESLKLQGVFSKQTVLKSHPLLSQSYELRAELLGRQPVLEFSLENLRTMNTSGQTALPQAPVNGLAKKLTKSSTHSDHDNSTSLNGGKRALTSSALHGGEMGGSESGDLKGGMTNCTLPHRSLDVEHTTLYSNNSTANKSSVNSMEQPALQGSSRLSPGTDSSSNLGGVKLEGKKSPLSSILFSALDSDTRITALLRRQADIESRARRLQKRLQVVQAKQVERHIQHQLGGFLEKTLSKLPNLESLRPRSQLMLTRKAEAALRKAASETTTSEGLSNFLKSNSISEELERFTASGIANLRCSEQAFDSDVTDSSSGGESDIEEEELTRADPEQRHVPLRRRSEWKWAADRAAIVSRWNWLQAHVSDLEYRIRQQTDIYKQIRANKGLIVLGEVPPPEHTTDLFLPLSSEVKTDHGTDKLIESVSQPLENHGAPIIGHISESLSTKSCGALRPVNGVINTLQPVLADHIPGDSSDAEEQLHKKQRLNLVSSSSDGTCVAARTRPVLSCKKRRLVRPNSIVPLSKKVHRNSTIRPGCDVNPSCALCGSGSINTMPPEIHYEAPLLERLSQLDSCVHPVLAFPDDVPTSLHFQSMLKSQWQNKPFDKIKPPKKLSLKHRAPMPGSLPDSARKDRHKLVSSFLTTAKLSHHQTRPDRTHRQHLDDVGAVPMVERVTAPKAERLLNPPPPVHDPNHSKMRLRDHSSERSEVLKHHTDMSSSSYLAATHHPPHSPLVRQLSTSSDSPAPASSSSQVTASTSQQPVRRRRGESSFDINNIVIPMSVAATTRVEKLQYKEILTPSWREVDLQSLKGSPDEENEEIEDLSDAAFAALHAKCEEMERARWLWTTSVPPQRRGSRSYRSSDGRTTPQLGSANPSTPQPASPDVSSSHSLSEYSHGQSPRSPISPELHSAPLTPVARDTPRHLASEDTRCSTPELGLDEQSVQPWERRTFPLAHSPQAECEDQLDAQERAARCTRRTSGSKTGRETEAAPTSPPIVPLKSRHLVAAATAQRPTHR
modifications: biotin (by proximity labelling)
In the case of B1, the binding entry is listed as “binds”.
